Laboratory results: the odorant receptor screen of Mainland et al. (2015)
Where “and” joins values, the source holds several entries; their conditions need not be identical. Equal values may be shown once. Some of the results follow. Each value is one well over the wells without odorant, computed here; the data are noisy.

Assays:
Experiment in all cases: odorant receptor activation (CRE luciferase / Renilla) (fold of no-odor wells); higher = more activation
Settings in all cases: 100 µM
[1] = tested on: OR13C3 G2C clone 1339
[2] = tested on: OR13C3 clone 1390
[3] = tested on: OR13C4 clone 1094
[4] = tested on: OR13C5 S18F/L69M/P79S/L86V/N128S/M258T clone 1477
[5] = tested on: OR13C7 Indel clone 1100
[6] = tested on: OR13C8 clone 1095
[7] = tested on: OR13C9 F197L clone 1096
[8] = tested on: OR13D1 clone 1338
[9] = tested on: OR13D1 clone 1484
[10] = tested on: OR13F1 F18S/M101V/V134I/I270T clone 1097
[11] = tested on: OR13G1 I132V clone 1036
[12] = tested on: OR13H1 clone 1497
[13] = tested on: OR13J1 H133R clone 1098
[14] = tested on: OR14A16 Indel clone 1030
[15] = tested on: OR14A2 clone 1042
[16] = tested on: OR14C36 G225R/D231Y clone 1028
[17] = tested on: OR14I1 V36A/D50N/S170N clone 1479
[18] = tested on: OR14J1 clone 1318
[19] = tested on: OR14J1 clone 1391
[20] = tested on: OR14K1 clone 1043

Compound | odorant receptor activation [1] | odorant receptor activation [2] | odorant receptor activation [3] | odorant receptor activation [4] | odorant receptor activation [5] | odorant receptor activation [6] | odorant receptor activation [7] | odorant receptor activation [8] | odorant receptor activation [9] | odorant receptor activation [10] | odorant receptor activation [11] | odorant receptor activation [12] | odorant receptor activation [13] | odorant receptor activation [14] | odorant receptor activation [15] | odorant receptor activation [16] | odorant receptor activation [17] | odorant receptor activation [18] | odorant receptor activation [19] | odorant receptor activation [20]
c1ccc(Oc2ccccc2)cc1 [diphenyl ether] | 1.02 | 0.941 | 0.877 | 0.871 | 0.905 | 0.93 | 0.838 | 0.925 | 1.07 | 0.878 | 1.02 | 1.05 | 0.992 | 0.945 | 1 | 1.08 | 1.02 | 0.87 | 1.34 | 0.938
CCCCCCCCC=O [nonyl aldehyde] | 1.06 | 0.745 | 0.708 | 1.13 | 1.06 | 1.19 | 1.2 | 0.937 | 1.07 | 1.04 | 0.791 | 1.12 | 1.25 | 1.13 | 0.979 | 1.03 | 1.2 | 0.924 | 0.853 | 0.873
C=CC(C)(O)CCC=C(C)C (centres undefined) [linalool] | 0.941 | 0.61 | 0.998 | 0.969 | 1.18 | 1.19 | 1.17 | 0.986 | 1.01 | 1.23 | 1.03 | 0.92 | 0.973 | 1.13 | 0.954 | 1.15 | 0.992 | 0.86 | 0.833 | 0.998
CCCCCCC=O [heptaldehyde] | – | 1.25 and 0.992 | 0.557 and 1.2 | – | 0.842 and 0.718 | 1.19 and 1.61 | 1.51 and 2.08 | – | – | 1.57 and 3.24 | 0.799 and 0.909 | – | 0.817 and 0.495 | 0.916 and 1.52 | 1.65 and 1.56 | 1.01 and 1.26 | – | – | 1.16 and 0.945 | 0.562 and 1.68
CCCCCCCCCC=O [decyl aldehyde] | 1.52 | 1.38 | 0.888 | 1.14 | 0.973 | 1.21 | 1.13 | 1.41 | 1.19 | 1.01 | 1.36 | 1.03 | 1.32 | 1.23 | 1.1 | 1.44 | 0.916 | 1.15 | 1.46 | 1.25
CC12C=CCC1C1CCC3CC(=O)CCC3(C)C1CC2 (centres undefined) [androstenone] | 1.09 | 1.1 | 10.1 | 1.2 | 7.87 | 1.4 | 16.6 | 0.979 | 0.871 | 1.26 | 2.11 | 1.02 | 2.2 | 1.82 | 1.89 | 1.91 | 1.03 | 1.08 | 2.27 | 1.4
C=CCc1ccc(O)c(OC)c1 [eugenol] | 2.91 and 1.42 | 1.49 and 1.48 | 0.698 and 1.17 | 0.982 and 1.09 and 0.934 | 0.743 and 1.4 | 2.51 and 1.48 | 0.941 and 1.39 | 1.2 and 1.23 | 0.918 and 1.07 and 1.85 | 1.77 and 1.17 | 0.732 and 1.76 | 1.46 and 1.13 and 1.6 | 0.997 and 1.66 | 0.93 and 1.44 | 3.44 and 1.69 | 1.59 and 1.68 | 1.57 and 0.765 and 1.23 | 1.37 and 1.38 | 1.22 and 1.41 | 0.557 and 1.59
CCCCCOC(C)=O [n-amyl acetate] | 0.206 | 0.901 | 0.543 | 0.392 and 0.727 | 0.91 | 2.01 | 1.33 | 0.431 | 0.943 and 0.804 | 1.5 | 0.64 | 0.704 and 0.788 | 1.39 | 0.954 | 2.45 | 0.819 | 0.583 and 0.688 | 0.413 | 0.758 | 1.23
c1cnccn1 [pyrazine] | 0.735 | 1.01 | 0.975 | 0.743 | 0.839 | 0.914 | 1.15 | 0.851 | 0.569 | 1.19 | 1.27 | 0.941 | 1.48 | 0.966 | 0.979 | 0.68 | 0.632 | 0.746 | 1.21 | 0.964
O=C1CCCCC1 [Cyclohexanone] | 0.399 | 1.01 | 1.04 | 0.391 and 0.781 | 0.756 | 1.34 | 1.55 | 0.652 | 0.816 and 0.815 | 0.946 | 0.741 | 0.381 and 0.992 | 1.14 | 0.795 | 0.981 | 1.06 | 0.628 and 0.713 | 0.751 | 0.891 | 0.452
CC1COCc2cc3c(cc21)C(C)(C)C(C)C3(C)C (centres undefined) [galaxolide] | 3.41 and 2.77 | 4.31 | 3.57 | – | 1.78 | 2.6 | 6.73 | 5.01 and 2.97 | – | 6 | 2.75 | – | 1.15 | 5.54 | 3.15 | 4.35 | – | 3.32 and 2.58 | 4.17 | 5.39
COc1cc(C)ccc1O [2-methoxy-4-methylphenol] | 1.04 | 1.2 | 11.9 | 0.85 | 7.2 | 1.64 | 10.9 | 0.939 | 0.771 | 1.2 | 1.81 | 0.761 | 1.93 | 1.88 | 1.75 | 1.75 | 0.889 | 1 | 1.85 | 1.66
CC(=O)C(C)=O [diacetyl] | 1.3 | 1.39 | 0.775 | 0.966 | 0.899 | 0.954 | 1.03 | 1.11 | 1.52 | 0.99 | 1.09 | 1.57 | 1.2 | 1.27 | 1.18 | 1.17 | 1.18 | 1.28 | 1.34 | 1.27
C=CCSCC=C [diallyl sulfide] | 1.16 | 1.05 | 0.831 | 1.09 | 0.846 | 1.02 | 0.932 | 0.946 | 1.25 | 0.907 | 1.03 | 1.24 | 1.08 | 0.833 | 0.979 | 1 | 0.962 | 1.03 | 1.19 | 0.965
CC(=O)OC(C)(C)C1CC=C(C)CC1 (centres undefined) [terpinyl acetate] | 0.771 | 0.856 | 1.59 | 0.848 | 1.03 | 1.78 | 1.5 | 0.769 | 0.912 | 1.57 | 1.3 | 1.04 | 1.48 | 1.48 | 1.62 | 1.01 | 1.05 | 1.05 | 0.989 | 1.43

Quoted from the listing.
Value for `C=CCSCC=C` [diallyl sulfide] under odorant receptor activation [15]: 0.979
Value for `CCCCCCC=O` [heptaldehyde] under odorant receptor activation [10]: 1.57 and 3.24
